This test addresses endogenous V5-tagged PPP2R1A (human (endogenous in THP-1)) (UniProt P30153). Kind of test: co-IP.

Chains of the proteins cited; added tags and fusions are not shown.
UniProt P30153: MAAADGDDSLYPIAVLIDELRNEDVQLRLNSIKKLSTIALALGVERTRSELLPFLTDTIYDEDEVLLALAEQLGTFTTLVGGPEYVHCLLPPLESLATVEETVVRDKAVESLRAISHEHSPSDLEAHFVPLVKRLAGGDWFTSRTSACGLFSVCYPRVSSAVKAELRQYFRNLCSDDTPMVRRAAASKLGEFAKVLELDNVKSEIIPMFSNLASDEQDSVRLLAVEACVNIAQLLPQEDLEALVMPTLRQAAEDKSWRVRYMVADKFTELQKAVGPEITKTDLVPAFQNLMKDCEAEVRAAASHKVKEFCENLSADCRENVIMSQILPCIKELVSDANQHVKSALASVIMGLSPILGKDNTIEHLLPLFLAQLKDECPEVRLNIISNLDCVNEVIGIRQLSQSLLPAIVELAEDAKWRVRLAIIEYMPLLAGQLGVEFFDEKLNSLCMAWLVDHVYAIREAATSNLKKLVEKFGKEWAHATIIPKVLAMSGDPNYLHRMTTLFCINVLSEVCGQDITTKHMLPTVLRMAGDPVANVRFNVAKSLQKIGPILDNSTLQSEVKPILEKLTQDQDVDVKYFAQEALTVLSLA
UniProt Q9UL03: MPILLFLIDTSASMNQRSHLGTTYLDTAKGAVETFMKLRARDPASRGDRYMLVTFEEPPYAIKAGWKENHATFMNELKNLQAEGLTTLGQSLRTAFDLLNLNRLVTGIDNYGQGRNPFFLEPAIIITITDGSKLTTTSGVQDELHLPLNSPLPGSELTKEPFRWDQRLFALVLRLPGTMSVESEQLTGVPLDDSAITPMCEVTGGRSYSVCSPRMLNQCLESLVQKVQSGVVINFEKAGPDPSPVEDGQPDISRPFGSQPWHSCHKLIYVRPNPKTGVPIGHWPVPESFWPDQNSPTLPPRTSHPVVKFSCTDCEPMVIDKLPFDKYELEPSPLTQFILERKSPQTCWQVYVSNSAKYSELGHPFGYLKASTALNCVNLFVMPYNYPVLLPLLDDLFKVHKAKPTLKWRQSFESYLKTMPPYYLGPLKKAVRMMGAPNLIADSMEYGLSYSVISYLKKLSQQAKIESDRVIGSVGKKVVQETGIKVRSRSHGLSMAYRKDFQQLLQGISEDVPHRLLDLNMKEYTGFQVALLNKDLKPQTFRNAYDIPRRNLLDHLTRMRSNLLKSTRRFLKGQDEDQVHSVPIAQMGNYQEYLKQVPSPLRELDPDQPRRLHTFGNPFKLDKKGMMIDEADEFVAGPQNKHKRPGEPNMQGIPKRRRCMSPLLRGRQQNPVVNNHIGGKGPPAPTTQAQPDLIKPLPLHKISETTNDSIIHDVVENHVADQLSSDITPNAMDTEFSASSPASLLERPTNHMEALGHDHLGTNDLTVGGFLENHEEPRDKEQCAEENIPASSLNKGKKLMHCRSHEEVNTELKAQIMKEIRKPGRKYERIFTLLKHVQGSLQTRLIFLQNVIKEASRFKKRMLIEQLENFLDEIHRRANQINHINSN

No constants are given. Whether binding was seen depends on the method and setting. In cells and extracts the contact can be indirect. Some binding calls cover weakened binding; strength is not graded here.

For “Integrator complex subunit INTS6 (from UniProt Q9UL03 1-887)”, the binding result is given as “binds”.
